In doi:10.1101/2024.07.22.24310683:
No constants are given. Whether binding was seen depends on the method and setting. Binding seen in cells or lysates may run through a third protein. Some binding calls cover weakened binding; strength is not graded here.

By UniProt entry, the sequences of proteins in these tests, tags left out. Where a name states a change or a piece, a line headed by the entry shows the natural chain unless it says otherwise.
UniProt P63010, whole entry: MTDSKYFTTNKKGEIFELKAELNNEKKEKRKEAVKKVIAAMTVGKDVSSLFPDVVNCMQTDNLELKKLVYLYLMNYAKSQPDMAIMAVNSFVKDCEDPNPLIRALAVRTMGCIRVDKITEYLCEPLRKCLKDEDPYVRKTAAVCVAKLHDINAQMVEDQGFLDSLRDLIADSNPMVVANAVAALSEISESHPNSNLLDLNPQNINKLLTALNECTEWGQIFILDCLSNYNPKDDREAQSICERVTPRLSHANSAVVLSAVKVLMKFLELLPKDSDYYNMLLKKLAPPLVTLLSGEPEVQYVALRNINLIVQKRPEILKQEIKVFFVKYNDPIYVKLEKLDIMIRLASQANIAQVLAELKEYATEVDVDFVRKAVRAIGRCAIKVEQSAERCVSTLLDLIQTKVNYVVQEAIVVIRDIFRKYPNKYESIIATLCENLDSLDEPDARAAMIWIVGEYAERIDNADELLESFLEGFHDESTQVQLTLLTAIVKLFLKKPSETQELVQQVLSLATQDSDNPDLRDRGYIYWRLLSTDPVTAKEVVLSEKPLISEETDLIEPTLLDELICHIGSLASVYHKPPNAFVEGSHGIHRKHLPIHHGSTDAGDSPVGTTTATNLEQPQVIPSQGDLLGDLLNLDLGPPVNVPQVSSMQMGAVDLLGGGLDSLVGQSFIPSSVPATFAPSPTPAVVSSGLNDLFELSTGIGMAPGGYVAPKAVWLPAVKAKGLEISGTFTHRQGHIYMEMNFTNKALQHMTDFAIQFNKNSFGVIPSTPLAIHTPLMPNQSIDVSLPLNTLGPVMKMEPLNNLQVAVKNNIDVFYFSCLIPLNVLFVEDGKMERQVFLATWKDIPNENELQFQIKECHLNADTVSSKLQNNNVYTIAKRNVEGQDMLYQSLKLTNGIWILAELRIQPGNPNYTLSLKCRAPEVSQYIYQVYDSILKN
UniProt Q96CW1, whole entry: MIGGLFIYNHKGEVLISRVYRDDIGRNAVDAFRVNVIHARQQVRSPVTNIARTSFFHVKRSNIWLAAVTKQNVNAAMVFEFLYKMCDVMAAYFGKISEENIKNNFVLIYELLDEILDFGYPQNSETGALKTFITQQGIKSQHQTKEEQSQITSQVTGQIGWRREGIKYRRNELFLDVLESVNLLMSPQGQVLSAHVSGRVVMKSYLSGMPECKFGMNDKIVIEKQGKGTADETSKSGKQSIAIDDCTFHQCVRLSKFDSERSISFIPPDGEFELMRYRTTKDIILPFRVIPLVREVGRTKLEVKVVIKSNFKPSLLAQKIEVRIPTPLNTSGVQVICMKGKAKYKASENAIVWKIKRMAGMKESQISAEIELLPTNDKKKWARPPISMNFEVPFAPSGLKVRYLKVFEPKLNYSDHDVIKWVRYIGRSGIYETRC

Legend:
Test in all cases: co-IP
[1] = target: HA-tagged AP2σ2 R15L variant (FHH3-associated) (human) (UniProt P53680)
[2] = target: HA-tagged AP2σ2 p.Lys18Asn variant (human) (UniProt P53680)
[3] = target: HA-tagged wild-type AP2σ2 (Adaptor-Related Protein Complex 2 Sigma-1 Subunit) (human) (UniProt P53680)
[4] = target: HA-tagged AP2σ2 p.Lys18Glu variant (human) (UniProt P53680)
[5] = target: HA-tagged AP2σ2 p.Arg10Trp variant (human) (UniProt P53680)
[6] = target: HA-tagged AP2σ2 p.Arg10Gln variant (human) (UniProt P53680)
[7] = target: HA-tagged AP2σ2 p.Arg61His variant (human) (UniProt P53680)

Row | binding [1] | binding [2] | binding [3] | binding [4] | binding [5] | binding [6] | binding [7] | Substance
1 | binds | binds | binds | binds |  |  |  | AP2β2 subunit of the AP2 complex (AP2 subunit beta-1) (from UniProt P63010 1-937)
2 | binds | binds | binds | binds | binds | binds | binds | AP2μ2 subunit of the AP2 complex (from UniProt Q96CW1 1-435)
